PubChem BioAssay AID743454 | Peter MacCallum Cancer Centre – 2014
Aim: 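Genes whose loss kills vorinostat-resistant colon cancer cells under vorinostat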 (primary screen). Cell system: human HCT116-VR colon cancer cells, selected for vorinostat resistance. Reagent: siRNA pool against human genes, 40 nM siRNA pool. Timing: vorinostat for 24 h, read-out about 72 h after transfection. Treatment: vorinostat at 2.5 µM final. Measurement: 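Cell viability by CellTiter-Fluor and caspase 3/7 activity by luminescence, each scaled to mock wells per plate, duplicates averaged, then robust z-scored over all plates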. Scale: viability robust z-score: higher = more viable cells than screen typical; caspase robust z-score: higher = more caspase 3/7 activity than screen typical. Call rule: 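a knock-down is a hit when classed RV1 or RV2 for lowered viability, or CA1 or CA2 for caspase activation; those lethal without drug were dropped; hits were retested singly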.
The deposit covers about 18,000 reagents; below is a random part of them. 450 of all reagents (2.5%) were called active. 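Single biological run; no consistent viability z cut-off exists, so the class columns, not z-scores, define the calls.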 A number with no mark means an inactive call.

gene symbol | viability hit class | caspase hit class | viability robust z-score | caspase robust z-score
PIWIL2 | no change | no change | 0.26 | 0.52
SLC5A11 | no change | no change | -0.28 | 0.78
PASD1 | no change | no change | -0.15 | 0.48
VAT1L | no change | no change | -0.42 | -0.22
DDX20 | no change | no change | -0.4 | -0.14
HBE1 | no change | no change | -0.43 | 0.11
EIF4G3 | no change | no change | -0.63 | -1.3
CAPZA2 | no change | no change | 0.6 | -0.08
PPP2R5D | no change | no change | 1.31 | 0.78
TREM1 | no change | no change | -1 | 1.29
P2RY4 | no change | no change | 0.78 | -0.16
GALNT4 | no change | no change | 1.77 | -0.5
PSMD1 | no change | no change | -5.04 | -0.18
SERPINA12 | no change | no change | 0.56 | -0.04
LCE2A | no change (active) | CA2 (caspase activation) | -0.92 | 5.92
EGFLAM | no change | no change | 0.4 | -0.08
BDH2 | no change | no change | 0.26 | -0.24
HAPSTR1 | no change | no change | 0.67 | -0.3
TRIM51BP | no change | no change | -1.31 | 1.84
ZNF750 | no change | no change | -0.24 | -0.11
SUMF2 | no change | no change | 1.03 | 0.16
RNF152 | no change | no change | -1.12 | 0.02
BPIFA2 | no change | no change | 0.22 | -1.16
SKOR2 | no change | no change | -0.91 | 3.12
KCTD6 | no change | no change | 0.42 | -0.98
PTPDC1 | no change | no change | -1.32 | 1.05
EHHADH | no change | no change | 0.67 | -0.64
LYZ | no change | no change | 0.01 | -0.62

Active calls (from the list above):
gene symbol | viability hit class | caspase hit class | viability robust z-score | caspase robust z-score
LCE2A | no change (active) | CA2 (caspase activation) | -0.92 | 5.92

Next reagents follow.
gene symbol | viability hit class | caspase hit class | viability robust z-score | caspase robust z-score
SEMA6A | no change | no change | -0.36 | -0.46
CLP1 | no change | no change | -1.88 | 0.63
APOC1 | no change | no change | 1.2 | -0.68
ALOX12B | no change | no change | 0.3 | -0.99
TTF1 | no change | no change | 0.12 | -0.05
RAB11A | no change | no change | -0.86 | -0.06
WFDC13 | no change | no change | -1.21 | 4.54
KDM2B | no change | no change | -1.54 | 0.76
SMIM12 | no change | no change | 1.81 | -0.54
MSR1 | no change | no change | 0.38 | -0.92
ZNF655 | no change | no change | -1.29 | 4.17
DDX51 | no change | no change | -0.44 | -0.25
G3BP2 | no change | no change | -0.18 | -0.6
GNPNAT1 | no change | no change | 0.37 | -0.3
NF1 | no change | no change | 0.12 | -0.21
TMCO5A | no change | no change | -1.33 | 3.72
GLRX | no change | no change | 0.74 | 0.24
PTGIS | no change | no change | -1.75 | 0.6
BUB1 | no change | no change | 0.62 | 0.44
BAIAP2L1 | no change | no change | -0.16 | -0.43
PPP4R2 | no change | no change | 0.06 | -0.92
DTX3 | no change | no change | -1.19 | 4.53
FAM124B | no change | no change | 0.54 | 0.32
USO1 | no change | no change | -0.27 | -0.52
SRGAP3 | no change | no change | 0.26 | -0.94
FAM168B | no change | no change | 1.15 | 1.62
LOC652859 (retired record) | no change | no change | -0.48 | 0.81
OR13C8 | no change | no change | -0.07 | -0.06
NAPSA | no change | no change | 0.62 | 1.76
